Laboratory results from PubChem BioAssay AID2662 (National Center for Advancing Translational Sciences (NCATS), 2010).
Hit rate of the full screen: of about 290,000 compounds, about 110 (0.038%) were called active. The shares of active, inactive and inconclusive entries below differ from those in the screen. The call rests on the fitted dose curve; in most records, active means well fitted inhibition curve with a large enough effect in the polarisation, with a control signal flat (not every such curve was filed as active); inconclusive means small, poorly fitted or top-dose-only effect, or effect the other way, or a change in a side signal; inactive means no such curve, though single readings can be large or run the other way; the % refers to the polarisation. Potencies beside an inconclusive call are fits to weak or partial responses and may not hold up. “Side channel” marks fits to a control or component signal instead of the main read-out.

Protein sequences, listed by entry. Tags and fused reporters are not part of them.
UniProt Q03164, whole entry, looked up: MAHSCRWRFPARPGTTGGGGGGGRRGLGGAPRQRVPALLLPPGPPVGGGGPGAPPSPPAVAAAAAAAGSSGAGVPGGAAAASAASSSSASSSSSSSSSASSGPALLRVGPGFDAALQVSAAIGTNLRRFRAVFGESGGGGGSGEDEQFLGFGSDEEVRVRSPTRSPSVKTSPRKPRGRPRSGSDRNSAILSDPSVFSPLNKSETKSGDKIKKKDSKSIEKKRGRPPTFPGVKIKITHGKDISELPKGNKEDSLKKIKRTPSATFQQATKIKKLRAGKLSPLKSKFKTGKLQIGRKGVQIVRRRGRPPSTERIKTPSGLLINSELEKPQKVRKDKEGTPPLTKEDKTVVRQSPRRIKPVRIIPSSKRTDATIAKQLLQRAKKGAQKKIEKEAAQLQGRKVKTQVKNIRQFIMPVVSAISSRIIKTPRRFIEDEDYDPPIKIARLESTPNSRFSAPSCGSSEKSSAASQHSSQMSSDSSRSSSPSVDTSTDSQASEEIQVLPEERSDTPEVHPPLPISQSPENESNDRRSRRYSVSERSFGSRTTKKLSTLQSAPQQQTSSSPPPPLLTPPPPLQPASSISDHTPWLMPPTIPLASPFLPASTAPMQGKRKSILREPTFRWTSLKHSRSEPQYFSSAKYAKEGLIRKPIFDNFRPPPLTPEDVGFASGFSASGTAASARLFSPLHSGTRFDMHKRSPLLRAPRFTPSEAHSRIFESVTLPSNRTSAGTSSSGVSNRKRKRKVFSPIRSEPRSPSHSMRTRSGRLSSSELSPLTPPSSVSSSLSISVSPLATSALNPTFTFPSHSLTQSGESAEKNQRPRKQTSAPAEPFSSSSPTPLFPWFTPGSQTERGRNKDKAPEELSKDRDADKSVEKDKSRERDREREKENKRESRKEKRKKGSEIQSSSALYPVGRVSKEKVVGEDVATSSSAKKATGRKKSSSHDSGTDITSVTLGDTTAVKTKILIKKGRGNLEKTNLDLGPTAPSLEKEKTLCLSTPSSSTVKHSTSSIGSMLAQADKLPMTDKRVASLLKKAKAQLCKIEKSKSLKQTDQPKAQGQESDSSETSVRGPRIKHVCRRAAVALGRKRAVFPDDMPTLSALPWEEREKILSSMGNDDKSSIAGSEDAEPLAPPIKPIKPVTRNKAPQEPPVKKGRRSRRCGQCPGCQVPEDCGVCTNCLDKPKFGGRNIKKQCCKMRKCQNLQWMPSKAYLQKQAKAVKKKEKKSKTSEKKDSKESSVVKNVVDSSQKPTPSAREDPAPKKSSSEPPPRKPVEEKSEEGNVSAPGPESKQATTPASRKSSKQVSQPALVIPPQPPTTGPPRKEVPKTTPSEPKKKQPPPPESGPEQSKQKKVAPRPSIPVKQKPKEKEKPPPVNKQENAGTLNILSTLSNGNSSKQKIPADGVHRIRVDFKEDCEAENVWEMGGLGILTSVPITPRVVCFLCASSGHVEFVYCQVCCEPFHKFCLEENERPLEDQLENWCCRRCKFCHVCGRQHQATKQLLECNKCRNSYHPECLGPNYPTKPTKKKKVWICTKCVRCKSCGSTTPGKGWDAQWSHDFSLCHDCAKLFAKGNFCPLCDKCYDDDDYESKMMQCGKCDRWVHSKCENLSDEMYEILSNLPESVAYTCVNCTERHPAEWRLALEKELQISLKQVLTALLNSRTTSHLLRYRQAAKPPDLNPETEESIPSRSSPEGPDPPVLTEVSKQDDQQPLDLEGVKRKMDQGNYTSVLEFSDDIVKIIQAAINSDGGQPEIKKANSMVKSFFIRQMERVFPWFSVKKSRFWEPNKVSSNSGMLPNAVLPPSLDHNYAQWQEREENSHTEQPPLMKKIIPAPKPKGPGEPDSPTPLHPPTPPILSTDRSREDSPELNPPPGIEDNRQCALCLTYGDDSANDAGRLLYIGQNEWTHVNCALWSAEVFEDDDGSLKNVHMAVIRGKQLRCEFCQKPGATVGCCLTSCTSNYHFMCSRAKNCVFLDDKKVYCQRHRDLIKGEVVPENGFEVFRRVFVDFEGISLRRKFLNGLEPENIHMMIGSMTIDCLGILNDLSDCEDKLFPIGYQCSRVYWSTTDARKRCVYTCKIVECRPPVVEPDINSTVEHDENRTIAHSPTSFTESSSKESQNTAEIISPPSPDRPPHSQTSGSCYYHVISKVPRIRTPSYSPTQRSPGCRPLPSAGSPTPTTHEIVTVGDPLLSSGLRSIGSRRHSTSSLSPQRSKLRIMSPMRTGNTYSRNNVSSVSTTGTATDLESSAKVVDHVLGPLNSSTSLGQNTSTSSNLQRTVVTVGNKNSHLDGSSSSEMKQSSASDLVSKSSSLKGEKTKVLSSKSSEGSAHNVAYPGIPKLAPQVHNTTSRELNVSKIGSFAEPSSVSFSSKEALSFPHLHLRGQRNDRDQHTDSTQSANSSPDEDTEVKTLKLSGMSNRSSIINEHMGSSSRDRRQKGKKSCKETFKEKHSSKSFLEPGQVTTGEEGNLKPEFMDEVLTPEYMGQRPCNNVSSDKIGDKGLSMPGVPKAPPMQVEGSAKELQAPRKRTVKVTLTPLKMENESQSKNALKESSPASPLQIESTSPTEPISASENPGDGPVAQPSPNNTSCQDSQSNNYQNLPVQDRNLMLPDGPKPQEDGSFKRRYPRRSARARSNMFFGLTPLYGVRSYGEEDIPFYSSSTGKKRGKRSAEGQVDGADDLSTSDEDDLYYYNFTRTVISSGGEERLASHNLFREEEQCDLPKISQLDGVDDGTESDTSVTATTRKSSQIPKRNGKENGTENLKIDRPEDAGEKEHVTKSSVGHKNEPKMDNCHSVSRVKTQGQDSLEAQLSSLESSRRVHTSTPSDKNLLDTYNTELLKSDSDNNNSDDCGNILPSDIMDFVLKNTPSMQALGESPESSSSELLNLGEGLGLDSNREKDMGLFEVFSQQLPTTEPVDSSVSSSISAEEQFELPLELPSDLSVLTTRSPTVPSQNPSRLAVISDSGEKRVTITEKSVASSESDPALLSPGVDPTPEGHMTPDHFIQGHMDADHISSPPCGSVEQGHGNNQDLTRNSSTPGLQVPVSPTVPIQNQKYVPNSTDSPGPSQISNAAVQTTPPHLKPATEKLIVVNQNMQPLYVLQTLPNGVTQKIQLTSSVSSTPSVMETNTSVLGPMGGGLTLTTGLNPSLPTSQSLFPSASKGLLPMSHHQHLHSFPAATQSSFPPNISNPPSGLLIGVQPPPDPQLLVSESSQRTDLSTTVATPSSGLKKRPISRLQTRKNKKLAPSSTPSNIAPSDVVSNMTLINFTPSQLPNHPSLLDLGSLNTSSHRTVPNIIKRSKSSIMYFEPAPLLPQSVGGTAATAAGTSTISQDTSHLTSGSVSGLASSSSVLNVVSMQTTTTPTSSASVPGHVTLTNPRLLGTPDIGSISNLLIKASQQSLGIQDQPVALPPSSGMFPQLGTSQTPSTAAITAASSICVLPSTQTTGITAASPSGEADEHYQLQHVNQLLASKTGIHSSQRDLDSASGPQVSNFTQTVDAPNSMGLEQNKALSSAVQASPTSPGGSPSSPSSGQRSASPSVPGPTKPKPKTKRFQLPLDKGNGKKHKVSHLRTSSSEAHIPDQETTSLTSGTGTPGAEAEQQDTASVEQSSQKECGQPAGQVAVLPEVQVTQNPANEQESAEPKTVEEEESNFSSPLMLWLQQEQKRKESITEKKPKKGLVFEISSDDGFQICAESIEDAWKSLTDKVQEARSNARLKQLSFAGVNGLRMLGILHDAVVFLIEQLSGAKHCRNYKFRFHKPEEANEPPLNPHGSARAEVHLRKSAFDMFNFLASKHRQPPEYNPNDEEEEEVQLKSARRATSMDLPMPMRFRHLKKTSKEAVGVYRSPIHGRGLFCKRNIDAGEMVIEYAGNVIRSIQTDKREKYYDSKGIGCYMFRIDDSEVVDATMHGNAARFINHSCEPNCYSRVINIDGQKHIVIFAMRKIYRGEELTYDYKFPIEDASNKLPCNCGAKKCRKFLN

Target: Histone-lysine N-methyltransferase 2A (Homo sapiens) (UniProt Q03164)
Experiment: qHTS Fluorescence Polarization Assay for Inhibitors of MLL CXXC domain - DNA interaction
Conditions: MLL-CXXC / FITC-HOXA9 DNA fluorescence polarization; series mostly up to 115 µM
Summary of the method: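 Fluorescence polarization: 7 uM MLL-CXXC (stock) preincubated 5 min with compounds, then 50 nM fluorescein-HOX-A9 DNA (stock) added; 30 min ambient. Buffer 50 mM Tris-HCl pH 7.5, 50 mM NaCl, 1 mM DTT, 0.05% BSA.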
Potency means the concentration at half of the fitted maximal effect.

Compound | Potency
CC(C)Oc1ccc(C(=O)Nc2ccc(N3CCCC3)cc2)cc1 | inconclusive: 1.58 µM [quencher, side channel, full curve, poor fit]
CCCC1CC(CSC(=N)N)OC1=O (stereo not drawn) | inconclusive: 8.91 µM [inhibitor, partial curve]
CCOc1ccccc1CN1CCNC(=O)C1CC(=O)NCCC1=CCCCC1 (stereo not drawn) | inconclusive: 11.2 µM [fluorescent, side channel, full curve]
COc1ccc(-c2oc3ncnc(N)c3c2-c2ccccc2)cc1 | inactive
CCCS(=O)(=O)c1c(S(=O)(=O)CCC)c2c(N)cccn2c1C(=O)c1ccc(OC)cc1 | inconclusive: 8.91 µM [inhibitor, single point]
O=C1NC(=S)/C(=C\c2ccc(-c3ccccc3Cl)o2)S1 | inconclusive: 39.8 µM [inhibitor, single point]
NNC(=O)CSc1c(-c2ccccc2)c2cc(Cl)ccc2[nH]c1=O | inactive
C=CCc1c(OC(C)=O)c2ccccc2n(C)c1=O | inconclusive: 11.2 µM [fluorescent, side channel, single point]
O=C(NNC(=O)C1CC1c1ccccc1)c1ccccc1[N+](=O)[O-] (stereo not drawn) | inconclusive: 70.8 µM [fluorescent, side channel, single point]
O=C(Nc1ccccc1)c1ccc(=O)[nH]n1 | inconclusive: 63.1 µM [fluorescent, single point]
CC[C@@H]1C=C(C)C[C@H](C)C[C@H](OC)[C@H]2O[C@@](O)(C(=O)C(=O)N3CCCC[C@H]3C(=O)O[C@H](/C(C)=C/[C@@H]3CC[C@@H](O)[C@H](OC)C3)[C@H](C)[C@@H](O)CC1=O)[C@H](C)C[C@@H]2OC | inconclusive: 11.2 µM [quencher, side channel, single point]
CC(=O)N(C(C)=O)c1nc2nc(C)cc(C)n2n1 | inconclusive: 89.1 µM [fluorescent, side channel, partial curve]
CSc1cccc(NC(=O)CSc2ccc(Cl)cc2)c1 | inconclusive: 3.55 µM [quencher, side channel, partial curve]
O=C1NCC(=O)N2C(c3ccccc3)c3[nH]c4ccccc4c3C[C@@H]12 (stereo partly drawn) | inconclusive: 31.6 µM [inhibitor, single point]
Cn1cnnc1Sc1cc(N2CCN(S(=O)(=O)c3ccc(Cl)c(Cl)c3)CC2)ccc1[N+](=O)[O-] | inactive
CCn1c(C)[n+](Cc2ccccc2)c2ccc(Cl)cc21 | inactive
CC(C)(C)C(=O)Nc1nc2c(s1)CN(Cc1ccccc1)CC2 | inconclusive: 35.5 µM [fluorescent, side channel, partial curve]
CS(=O)(=O)N1CCC(C(=O)Nc2cccc(Cl)c2)CC1 | inactive
Oc1ccc(-c2n[nH]c(=S)n2-c2ccc3c(c2)OCCO3)cc1 | inactive

Compound | Potency
CCOc1ccc2nc(C)cc(Nc3cccc([N+](=O)[O-])c3)c2c1 | inconclusive: 70.8 µM [quencher, side channel, single point]
O=C(Nc1ccc2nc3n(c(=O)c2c1)CCCCC3)c1c(F)ccc([N+](=O)[O-])c1F | inconclusive: 11.2 µM [quencher, side channel, partial curve]
CCN(CC)CCCn1c(C)cc2c(c1=O)C(c1ccc(OC)c(OC)c1OC)C(C#N)=C(N)O2 (stereo not drawn) | inconclusive: 11.2 µM [fluorescent, side channel, full curve]
COc1ccc(C(=O)CC(=O)C(=O)Nc2cc([N+](=O)[O-])ccc2OC)cc1 | inconclusive: 89.1 µM [inhibitor, single point]
Cc1ccc(CNCC(O)(c2ccc(F)cc2)c2ccc(F)cc2)cc1 | inconclusive: 28.2 µM [quencher, side channel, partial curve]
S=c1[nH]nc(COc2ccccc2)n1Cc1ccccc1 | inactive
COc1ccc2c(c1)cc(C(=O)N/N=C/c1c(O)c(C(=O)O)cc3ccccc13)n2C | inconclusive: 70.8 µM [fluorescent, side channel, single point]
COc1ccc(Cc2nnc(NN)[nH]c2=O)cc1OC | inconclusive: 14.1 µM [fluorescent, side channel, single point]
COc1ccc(/C=C/C(=O)Nc2ccc(-c3nnc4n3CCCCC4)cc2)c(OC)c1 | inconclusive: 70.8 µM [fluorescent, side channel, single point]
Cc1ccc(C(=O)N2CCc3ccccc3C2)cc1S(=O)(=O)N1CCOCC1 | inconclusive: 10 µM [fluorescent, side channel, single point]
CC(C)(C)[C@H]1C=C(C(=O)Nc2ccccc2)O[C@@H](OCc2ccc(CO)cc2)C1 | inconclusive: 31.6 µM [inhibitor, single point]
CCCCCCc1cc2cc(-c3nnc(-c4ccccc4O)o3)c(=O)oc2cc1O | inconclusive: 5.62 µM [fluorescent, side channel, full curve]
COc1ccccc1CNc1n[nH]c(NCc2ccccc2OC)n1 | inactive
CCc1nc2nc(C)c(NS(=O)(=O)c3ccc4c(c3)CCCC4)c(=O)n2[nH]1 | inactive
O=C(CSc1nnc(NC(=O)C2CC(=O)N(c3ccccc3)C2)s1)NCC1CCCO1 (stereo not drawn) | inconclusive: 8.91 µM [fluorescent, side channel, single point]
COC(=O)Cn1c(=O)c2c(n(Cc3ccccc3)c1=O)N/C(=C/c1ccc(Br)cc1)C2=O | inconclusive: 20 µM [fluorescent, partial curve]
N#C/C(=C\c1ccc(N2CCOCC2)o1)C(=O)NCCc1ccccc1 | inconclusive: 17.8 µM [fluorescent, side channel, partial curve]
CN1CCc2c(sc3nc(NN)n(-c4ccc(Cl)cc4)c(=O)c23)C1 | inconclusive: 25.1 µM [fluorescent, side channel, partial curve]
CCn1c(O)c(/C=N/N=C/c2ccccc2)c2ccc(C3=NNC(=O)CC3)cc21 | inconclusive: 35.5 µM [fluorescent, side channel, partial curve]

Copied from above, 2 compounds:
Compound | Potency
COC(=O)Cn1c(=O)c2c(n(Cc3ccccc3)c1=O)N/C(=C/c1ccc(Br)cc1)C2=O | inconclusive: 20 µM [fluorescent, partial curve]
N#C/C(=C\c1ccc(N2CCOCC2)o1)C(=O)NCCc1ccccc1 | inconclusive: 17.8 µM [fluorescent, side channel, partial curve]
